Data as given in patent US20190091162A1, “POLYMER-LIPID HYBRID NANOPARTICLES OF CAPECITABINE UTILIZING MICROMIXING AND CAPECITABINE AMPHIPHILIC PROPERTIES” (Jingjie PTM BioLab (Hangzhou) Co., Ltd., priority 2017, published 2019).
At least one read-out could not be matched to a standard name with certainty.

Assay: Solubility of CAP in deionized water by DLS count rate
Assay type: physicochemical
Settings: DI water, room temperature, 0.01-20 mg/ml tested

CCCCCOC(=O)Nc1nc(=O)n([C@@H]2O[C@H](C)[C@@H](O)[C@H]2O)cc1F [CAP, N4-pentyloxycarbonyl-5-deoxy-5-fluoro-cytidine]
CAP concentration at sharp increase of scattering light intensity (solubility / particle formation): about a few
